± gives the standard deviation of the averaged measurements. The entries are a selection whose mix differs from that of the whole data set.
Compound: Nc1ncnc2c1ncn2[C@@H]1O[C@H](COP(=O)(O)OP(=O)(O)OP(=O)(O)O)[C@@H](O)[C@H]1O [adenosine triphosphate]
Experiment: NP40-soluble protein abundance relative to vehicle (solubility fold change) (ratio); higher = more soluble protein in presence of ATP
In short: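 In three independent experiments, Jurkat crude lysate made by Dounce homogenisation was treated for 10 min at room temperature and then 3 min at 37 °C with eight concentrations ranging from 0.1 to 10 mM. It was then solubilised with 0.8% NP40 plus benzonase for 60 min at 4 °C and ultracentrifuged. The supernatant was TMT-labelled for LC-MS/MS, and each value is the fold change against the detergent-processed vehicle for the same replicate, using vsn-normalised intensities.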

Sequences of proteins named here, by UniProt entry; tags and fusion partners are left off. A change or cut given only in a name is not applied to a line headed by its entry.
UniProt P27701: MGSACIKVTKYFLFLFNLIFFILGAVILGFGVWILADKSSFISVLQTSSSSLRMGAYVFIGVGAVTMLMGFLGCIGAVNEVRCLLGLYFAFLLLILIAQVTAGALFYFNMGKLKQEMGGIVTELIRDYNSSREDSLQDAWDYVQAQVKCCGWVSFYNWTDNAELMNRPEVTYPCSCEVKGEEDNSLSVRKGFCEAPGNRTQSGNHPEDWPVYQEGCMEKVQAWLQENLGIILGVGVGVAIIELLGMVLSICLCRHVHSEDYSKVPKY
UniProt P30048: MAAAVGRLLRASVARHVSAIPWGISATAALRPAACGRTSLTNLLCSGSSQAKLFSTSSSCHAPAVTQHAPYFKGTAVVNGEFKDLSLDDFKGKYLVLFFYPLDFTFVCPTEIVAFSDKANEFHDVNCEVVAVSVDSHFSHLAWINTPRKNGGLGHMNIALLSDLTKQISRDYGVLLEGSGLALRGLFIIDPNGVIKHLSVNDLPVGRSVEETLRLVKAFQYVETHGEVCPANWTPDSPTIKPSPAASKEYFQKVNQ
UniProt P30041: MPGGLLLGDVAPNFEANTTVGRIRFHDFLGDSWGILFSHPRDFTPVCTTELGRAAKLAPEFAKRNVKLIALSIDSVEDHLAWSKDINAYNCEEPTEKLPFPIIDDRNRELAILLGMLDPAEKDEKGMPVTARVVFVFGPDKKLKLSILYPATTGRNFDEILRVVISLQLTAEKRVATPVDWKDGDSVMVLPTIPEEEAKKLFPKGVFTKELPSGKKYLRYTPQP
UniProt P18206: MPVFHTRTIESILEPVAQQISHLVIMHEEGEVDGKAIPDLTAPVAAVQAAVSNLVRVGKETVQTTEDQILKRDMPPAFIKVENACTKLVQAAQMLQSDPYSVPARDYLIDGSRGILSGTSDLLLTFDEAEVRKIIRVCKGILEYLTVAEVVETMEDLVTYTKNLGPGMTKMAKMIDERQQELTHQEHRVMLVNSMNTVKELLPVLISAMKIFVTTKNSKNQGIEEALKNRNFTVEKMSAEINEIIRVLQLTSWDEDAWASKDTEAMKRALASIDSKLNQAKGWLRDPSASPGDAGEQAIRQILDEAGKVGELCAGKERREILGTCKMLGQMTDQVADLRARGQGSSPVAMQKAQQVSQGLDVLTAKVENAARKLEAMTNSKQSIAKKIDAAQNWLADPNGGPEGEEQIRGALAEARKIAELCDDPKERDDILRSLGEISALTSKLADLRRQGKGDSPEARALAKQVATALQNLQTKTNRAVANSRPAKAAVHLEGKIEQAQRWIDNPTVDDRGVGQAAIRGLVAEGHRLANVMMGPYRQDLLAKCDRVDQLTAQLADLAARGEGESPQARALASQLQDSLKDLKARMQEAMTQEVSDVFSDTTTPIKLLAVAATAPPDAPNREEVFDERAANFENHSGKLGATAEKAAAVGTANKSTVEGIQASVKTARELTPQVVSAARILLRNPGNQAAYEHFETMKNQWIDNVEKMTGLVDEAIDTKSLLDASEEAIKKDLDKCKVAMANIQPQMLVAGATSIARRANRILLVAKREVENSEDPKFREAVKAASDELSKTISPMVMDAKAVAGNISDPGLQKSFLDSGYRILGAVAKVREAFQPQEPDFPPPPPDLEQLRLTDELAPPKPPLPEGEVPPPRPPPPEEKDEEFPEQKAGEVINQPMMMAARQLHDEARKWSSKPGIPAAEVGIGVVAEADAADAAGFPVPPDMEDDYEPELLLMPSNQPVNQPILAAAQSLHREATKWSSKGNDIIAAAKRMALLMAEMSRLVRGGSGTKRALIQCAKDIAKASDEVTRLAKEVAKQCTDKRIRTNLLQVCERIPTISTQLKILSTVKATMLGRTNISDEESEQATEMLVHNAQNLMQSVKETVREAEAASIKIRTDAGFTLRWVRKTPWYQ
UniProt P28074: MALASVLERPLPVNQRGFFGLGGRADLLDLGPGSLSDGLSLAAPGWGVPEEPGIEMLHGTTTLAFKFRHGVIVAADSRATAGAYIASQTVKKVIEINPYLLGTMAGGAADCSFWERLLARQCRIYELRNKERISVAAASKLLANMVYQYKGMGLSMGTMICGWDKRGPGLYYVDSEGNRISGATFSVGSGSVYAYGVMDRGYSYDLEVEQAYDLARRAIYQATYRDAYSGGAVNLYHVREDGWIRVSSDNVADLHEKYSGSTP
UniProt P21796, whole entry: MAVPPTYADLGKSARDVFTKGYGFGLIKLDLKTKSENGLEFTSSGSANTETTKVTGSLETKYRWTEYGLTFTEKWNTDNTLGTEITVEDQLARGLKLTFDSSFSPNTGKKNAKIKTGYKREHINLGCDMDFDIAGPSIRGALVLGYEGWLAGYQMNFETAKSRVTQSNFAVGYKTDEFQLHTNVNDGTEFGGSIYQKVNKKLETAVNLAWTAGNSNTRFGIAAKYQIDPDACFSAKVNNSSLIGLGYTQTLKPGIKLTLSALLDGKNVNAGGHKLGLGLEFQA
UniProt P25789: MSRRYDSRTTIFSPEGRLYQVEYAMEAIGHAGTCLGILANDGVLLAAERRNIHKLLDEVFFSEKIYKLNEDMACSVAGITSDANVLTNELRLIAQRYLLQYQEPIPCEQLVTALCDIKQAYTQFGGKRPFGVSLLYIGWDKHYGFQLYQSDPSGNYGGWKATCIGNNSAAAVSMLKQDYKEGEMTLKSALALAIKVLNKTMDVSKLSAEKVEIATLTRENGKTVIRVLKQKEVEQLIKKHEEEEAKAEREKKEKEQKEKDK
UniProt P23528, whole entry: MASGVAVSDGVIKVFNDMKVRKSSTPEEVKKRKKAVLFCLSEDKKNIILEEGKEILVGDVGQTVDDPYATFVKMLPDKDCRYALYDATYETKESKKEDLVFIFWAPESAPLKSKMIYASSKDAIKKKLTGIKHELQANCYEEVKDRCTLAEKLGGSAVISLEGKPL
UniProt P34947, whole entry, looked up: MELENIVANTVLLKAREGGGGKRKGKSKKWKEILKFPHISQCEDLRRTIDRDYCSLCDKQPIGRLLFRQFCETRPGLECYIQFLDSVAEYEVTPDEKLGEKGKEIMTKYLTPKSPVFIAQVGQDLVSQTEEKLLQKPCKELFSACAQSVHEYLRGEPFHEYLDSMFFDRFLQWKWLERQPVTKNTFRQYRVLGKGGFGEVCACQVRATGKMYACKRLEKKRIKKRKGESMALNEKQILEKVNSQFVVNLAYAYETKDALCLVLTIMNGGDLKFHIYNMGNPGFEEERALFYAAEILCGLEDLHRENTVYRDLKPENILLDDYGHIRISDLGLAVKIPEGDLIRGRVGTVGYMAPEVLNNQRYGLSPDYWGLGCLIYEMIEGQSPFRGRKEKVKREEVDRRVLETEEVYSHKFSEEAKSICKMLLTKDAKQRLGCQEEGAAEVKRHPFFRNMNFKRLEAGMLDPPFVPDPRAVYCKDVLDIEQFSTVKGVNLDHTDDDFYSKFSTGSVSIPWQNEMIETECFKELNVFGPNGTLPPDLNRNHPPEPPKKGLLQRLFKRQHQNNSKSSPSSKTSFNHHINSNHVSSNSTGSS
UniProt P19784, whole entry, looked up: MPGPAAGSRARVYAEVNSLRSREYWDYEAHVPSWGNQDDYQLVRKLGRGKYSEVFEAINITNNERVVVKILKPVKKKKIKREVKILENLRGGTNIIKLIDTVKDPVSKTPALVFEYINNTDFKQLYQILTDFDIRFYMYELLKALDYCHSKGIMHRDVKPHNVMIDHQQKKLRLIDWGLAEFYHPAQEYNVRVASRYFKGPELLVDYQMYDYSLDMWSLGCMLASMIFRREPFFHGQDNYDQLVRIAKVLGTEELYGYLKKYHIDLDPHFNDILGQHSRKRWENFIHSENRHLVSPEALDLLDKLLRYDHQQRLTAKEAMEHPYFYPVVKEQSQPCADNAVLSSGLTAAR
UniProt P33527: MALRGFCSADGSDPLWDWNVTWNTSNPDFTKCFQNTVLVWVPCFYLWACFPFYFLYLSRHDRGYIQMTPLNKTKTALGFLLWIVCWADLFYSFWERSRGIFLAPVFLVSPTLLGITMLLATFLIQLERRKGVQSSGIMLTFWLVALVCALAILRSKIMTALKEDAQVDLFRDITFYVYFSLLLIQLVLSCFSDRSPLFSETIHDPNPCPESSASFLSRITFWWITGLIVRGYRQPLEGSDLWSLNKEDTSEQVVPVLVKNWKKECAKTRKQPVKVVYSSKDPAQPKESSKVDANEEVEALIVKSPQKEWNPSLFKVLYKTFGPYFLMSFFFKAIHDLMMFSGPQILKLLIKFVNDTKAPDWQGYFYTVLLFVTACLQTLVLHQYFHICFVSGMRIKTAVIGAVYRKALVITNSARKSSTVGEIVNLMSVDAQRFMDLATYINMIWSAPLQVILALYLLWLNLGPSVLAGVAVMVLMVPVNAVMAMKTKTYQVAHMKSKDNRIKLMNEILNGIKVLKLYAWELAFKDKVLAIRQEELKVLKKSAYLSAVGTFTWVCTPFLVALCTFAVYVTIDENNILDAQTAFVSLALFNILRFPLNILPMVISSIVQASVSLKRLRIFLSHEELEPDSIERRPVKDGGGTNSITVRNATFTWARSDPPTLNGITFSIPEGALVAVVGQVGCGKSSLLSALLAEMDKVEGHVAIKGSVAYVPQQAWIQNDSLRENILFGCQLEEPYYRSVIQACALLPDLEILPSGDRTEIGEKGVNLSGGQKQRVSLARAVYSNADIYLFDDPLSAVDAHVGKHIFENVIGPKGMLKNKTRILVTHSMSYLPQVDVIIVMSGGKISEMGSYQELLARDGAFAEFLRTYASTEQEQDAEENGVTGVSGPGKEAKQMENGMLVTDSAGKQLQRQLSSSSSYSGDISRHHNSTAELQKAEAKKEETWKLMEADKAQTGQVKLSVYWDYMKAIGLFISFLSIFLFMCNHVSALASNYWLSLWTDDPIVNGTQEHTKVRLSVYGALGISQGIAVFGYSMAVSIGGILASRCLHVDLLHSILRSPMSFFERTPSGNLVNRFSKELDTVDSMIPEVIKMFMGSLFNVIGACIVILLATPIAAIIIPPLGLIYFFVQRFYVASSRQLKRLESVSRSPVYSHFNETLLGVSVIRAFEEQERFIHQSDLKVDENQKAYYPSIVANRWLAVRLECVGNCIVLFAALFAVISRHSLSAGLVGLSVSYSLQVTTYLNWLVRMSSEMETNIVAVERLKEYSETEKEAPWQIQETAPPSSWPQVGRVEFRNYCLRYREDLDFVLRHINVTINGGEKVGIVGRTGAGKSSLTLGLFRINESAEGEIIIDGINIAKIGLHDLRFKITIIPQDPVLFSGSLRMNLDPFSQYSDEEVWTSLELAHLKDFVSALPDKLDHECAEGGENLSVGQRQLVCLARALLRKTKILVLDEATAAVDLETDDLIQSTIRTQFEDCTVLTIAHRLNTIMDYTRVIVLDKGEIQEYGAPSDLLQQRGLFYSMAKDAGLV
UniProt P17542, whole entry: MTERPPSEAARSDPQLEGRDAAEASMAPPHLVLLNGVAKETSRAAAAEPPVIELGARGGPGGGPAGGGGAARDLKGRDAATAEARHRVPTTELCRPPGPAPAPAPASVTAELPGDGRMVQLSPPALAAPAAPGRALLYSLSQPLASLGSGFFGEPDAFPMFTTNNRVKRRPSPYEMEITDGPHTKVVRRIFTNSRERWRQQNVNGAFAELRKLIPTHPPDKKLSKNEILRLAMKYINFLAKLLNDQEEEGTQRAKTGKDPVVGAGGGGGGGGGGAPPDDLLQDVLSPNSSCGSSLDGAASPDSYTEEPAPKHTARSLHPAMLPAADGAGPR
UniProt P25788: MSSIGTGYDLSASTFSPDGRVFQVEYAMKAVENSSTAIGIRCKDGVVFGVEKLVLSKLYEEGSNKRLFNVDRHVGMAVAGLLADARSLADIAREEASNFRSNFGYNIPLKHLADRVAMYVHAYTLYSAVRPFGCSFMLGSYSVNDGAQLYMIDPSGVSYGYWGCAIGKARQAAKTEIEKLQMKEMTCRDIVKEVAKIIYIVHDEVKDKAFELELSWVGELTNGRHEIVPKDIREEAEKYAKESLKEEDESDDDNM
UniProt P21281, whole entry: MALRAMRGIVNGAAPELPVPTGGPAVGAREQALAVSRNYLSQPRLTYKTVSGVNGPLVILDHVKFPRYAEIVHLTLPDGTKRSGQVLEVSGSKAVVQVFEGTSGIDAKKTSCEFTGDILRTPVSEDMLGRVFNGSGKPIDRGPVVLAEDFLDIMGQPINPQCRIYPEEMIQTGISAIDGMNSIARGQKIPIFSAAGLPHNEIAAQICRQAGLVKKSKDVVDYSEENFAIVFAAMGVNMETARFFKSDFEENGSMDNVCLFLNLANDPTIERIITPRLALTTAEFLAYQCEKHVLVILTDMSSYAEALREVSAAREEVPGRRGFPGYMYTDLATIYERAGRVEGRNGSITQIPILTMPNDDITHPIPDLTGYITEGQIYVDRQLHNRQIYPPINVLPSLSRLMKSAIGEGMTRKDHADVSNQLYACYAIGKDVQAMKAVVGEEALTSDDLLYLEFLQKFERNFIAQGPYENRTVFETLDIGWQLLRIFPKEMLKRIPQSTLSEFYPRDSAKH
UniProt P16949: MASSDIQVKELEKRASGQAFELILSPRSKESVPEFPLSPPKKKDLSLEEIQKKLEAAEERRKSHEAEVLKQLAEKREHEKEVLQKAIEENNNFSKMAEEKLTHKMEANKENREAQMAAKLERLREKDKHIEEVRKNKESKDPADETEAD

Target	NP40-soluble protein abundance (concentration: 1mM)	NP40-soluble protein abundance (concentration: 2mM)	NP40-soluble protein abundance (concentration: 4mM)	NP40-soluble protein abundance (concentration: 6mM)	NP40-soluble protein abundance (concentration: 8mM)	NP40-soluble protein abundance (concentration: 10mM)
UniProt P28331 and related entries	0.976 ± 0.028	0.964 ± 0.02	0.926 ± 0.014	0.936 ± 0.071	0.94 ± 0.057	0.941 ± 0.034
UniProt P27701 and related entries	0.874 ± 0.062	0.896 ± 0.0062	0.883 ± 0.039	0.852 ± 0.024	0.851 ± 0.036	0.779 ± 0.072
GTF2F1 (UniProt P35269)	0.953 ± 0.056	0.95 ± 0.0098	0.912 ± 0.02	0.985 ± 0.049	0.907 ± 0.033	0.915 ± 0.028
UniProt P29590 and related entries	0.909 ± 0.048	0.911 ± 0.028	0.899 ± 0.034	0.947 ± 0.053	0.909 ± 0.012	0.934 ± 0.0095
YWHAQ (UniProt P27348)	0.952 ± 0.093	0.922 ± 0.045	0.92 ± 0.025	0.922 ± 0.067	0.906 ± 0.011	0.818 ± 0.07
UniProt P16591 and related entries	1.05 ± 0.047	1.03 ± 0.049	0.986 ± 0.033	0.994 ± 0.041	1 ± 0.028	1.01 ± 0.05
UniProt P32519 and related entries	0.948 ± 0.063	0.942 ± 0.031	0.915 ± 0.016	0.974 ± 0.048	0.917 ± 0.05	0.925 ± 0.028
UniProt P17480 and related entries	1.11 ± 0.041	1.18 ± 0.053	1.28 ± 0.065	1.4 ± 0.12	1.43 ± 0.044	1.6 ± 0.13
UniProt P17706 and related entries	0.96 ± 0.086	0.93 ± 0.084	0.92 ± 0.077	0.945 ± 0.073	0.923 ± 0.053	0.931 ± 0.053
UniProt P30048 and related entries	0.961 ± 0.056	0.998 ± 0.029	0.927 ± 0.018	0.957 ± 0.034	0.959 ± 0.053	0.935 ± 0.03
PRDX6 (UniProt P30041)	0.966 ± 0.026	0.958 ± 0.03	0.919 ± 0.029	0.89 ± 0.074	0.955 ± 0.056	0.885 ± 0.07
ERCC3 (UniProt P19447)	1.04 ± 0.071	1.07 ± 0.032	1.13 ± 0.065	1.11 ± 0.06	1.19 ± 0.025	1.17 ± 0.021
IL2RG (UniProt P31785)	0.911 ± 0.082	0.978 ± 0.026	0.975 ± 0.053	0.956 ± 0.067	0.927 ± 0.03	0.939 ± 0.051
PSMB8 (UniProt P28062)	0.933 ± 0.063	0.912 ± 0.027	0.9009 ± 0.0072	0.84 ± 0.0097	0.949 ± 0.035	0.943 ± 0.046
CKS2 (UniProt P33552)	1.032 ± 0.0068	1 ± 0.026	1.02 ± 0.081	1.08 ± 0.027	0.955 ± 0.028	0.957 ± 0.081
UniProt P35241 and related entries	1 ± 0.038	0.963 ± 0.028	0.9339 ± 0.0043	0.985 ± 0.026	0.922 ± 0.028	0.932 ± 0.031
MGAT1 (UniProt P26572)	1.12 ± 0.17	1.1 ± 0.052	1.13 ± 0.2	1.08 ± 0.17	1.06 ± 0.11	1.056 ± 0.01
UniProt P20290 and related entries	1.08 ± 0.12	1.08 ± 0.055	1.13 ± 0.081	1.24 ± 0.089	1.16 ± 0.036	1.16 ± 0.06
UniProt P18206 and related entries	0.934 ± 0.052	0.957 ± 0.032	0.953 ± 0.039	0.966 ± 0.024	0.914 ± 0.034	0.935 ± 0.017
RFX1 (UniProt P22670)	0.981 ± 0.057	0.992 ± 0.059	1.01 ± 0.052	0.948 ± 0.052	0.973 ± 0.027	0.993 ± 0.02

As a working copy, part of the list above:
Target	NP40-soluble protein abundance (concentration: 1mM)	NP40-soluble protein abundance (concentration: 2mM)	NP40-soluble protein abundance (concentration: 4mM)	NP40-soluble protein abundance (concentration: 6mM)	NP40-soluble protein abundance (concentration: 8mM)	NP40-soluble protein abundance (concentration: 10mM)
GTF2F1 (UniProt P35269)	0.953 ± 0.056	0.95 ± 0.0098	0.912 ± 0.02	0.985 ± 0.049	0.907 ± 0.033	0.915 ± 0.028
UniProt P29590 and related entries	0.909 ± 0.048	0.911 ± 0.028	0.899 ± 0.034	0.947 ± 0.053	0.909 ± 0.012	0.934 ± 0.0095
YWHAQ (UniProt P27348)	0.952 ± 0.093	0.922 ± 0.045	0.92 ± 0.025	0.922 ± 0.067	0.906 ± 0.011	0.818 ± 0.07
UniProt P16591 and related entries	1.05 ± 0.047	1.03 ± 0.049	0.986 ± 0.033	0.994 ± 0.041	1 ± 0.028	1.01 ± 0.05
UniProt P32519 and related entries	0.948 ± 0.063	0.942 ± 0.031	0.915 ± 0.016	0.974 ± 0.048	0.917 ± 0.05	0.925 ± 0.028
UniProt P17480 and related entries	1.11 ± 0.041	1.18 ± 0.053	1.28 ± 0.065	1.4 ± 0.12	1.43 ± 0.044	1.6 ± 0.13
UniProt P17706 and related entries	0.96 ± 0.086	0.93 ± 0.084	0.92 ± 0.077	0.945 ± 0.073	0.923 ± 0.053	0.931 ± 0.053
UniProt P30048 and related entries	0.961 ± 0.056	0.998 ± 0.029	0.927 ± 0.018	0.957 ± 0.034	0.959 ± 0.053	0.935 ± 0.03
PRDX6 (UniProt P30041)	0.966 ± 0.026	0.958 ± 0.03	0.919 ± 0.029	0.89 ± 0.074	0.955 ± 0.056	0.885 ± 0.07
ERCC3 (UniProt P19447)	1.04 ± 0.071	1.07 ± 0.032	1.13 ± 0.065	1.11 ± 0.06	1.19 ± 0.025	1.17 ± 0.021
IL2RG (UniProt P31785)	0.911 ± 0.082	0.978 ± 0.026	0.975 ± 0.053	0.956 ± 0.067	0.927 ± 0.03	0.939 ± 0.051
PSMB8 (UniProt P28062)	0.933 ± 0.063	0.912 ± 0.027	0.9009 ± 0.0072	0.84 ± 0.0097	0.949 ± 0.035	0.943 ± 0.046
CKS2 (UniProt P33552)	1.032 ± 0.0068	1 ± 0.026	1.02 ± 0.081	1.08 ± 0.027	0.955 ± 0.028	0.957 ± 0.081
UniProt P35241 and related entries	1 ± 0.038	0.963 ± 0.028	0.9339 ± 0.0043	0.985 ± 0.026	0.922 ± 0.028	0.932 ± 0.031
MGAT1 (UniProt P26572)	1.12 ± 0.17	1.1 ± 0.052	1.13 ± 0.2	1.08 ± 0.17	1.06 ± 0.11	1.056 ± 0.01
UniProt P20290 and related entries	1.08 ± 0.12	1.08 ± 0.055	1.13 ± 0.081	1.24 ± 0.089	1.16 ± 0.036	1.16 ± 0.06
UniProt P18206 and related entries	0.934 ± 0.052	0.957 ± 0.032	0.953 ± 0.039	0.966 ± 0.024	0.914 ± 0.034	0.935 ± 0.017
RFX1 (UniProt P22670)	0.981 ± 0.057	0.992 ± 0.059	1.01 ± 0.052	0.948 ± 0.052	0.973 ± 0.027	0.993 ± 0.02

Next part.

Target	NP40-soluble protein abundance (concentration: 1mM)	NP40-soluble protein abundance (concentration: 2mM)	NP40-soluble protein abundance (concentration: 4mM)	NP40-soluble protein abundance (concentration: 6mM)	NP40-soluble protein abundance (concentration: 8mM)	NP40-soluble protein abundance (concentration: 10mM)
NDUFB7 (UniProt P17568)	0.937 ± 0.12	0.919 ± 0.073	0.947 ± 0.097	1.02 ± 0.075	0.924 ± 0.031	0.903 ± 0.14
DNAJA1 (UniProt P31689)	1.04 ± 0.047	1.02 ± 0.033	1.01 ± 0.017	1.04 ± 0.07	1.08 ± 0.039	1.05 ± 0.049
PSMB5 (UniProt P28074)	0.977 ± 0.14	0.953 ± 0.071	0.92 ± 0.042	0.827 ± 0.037	0.932 ± 0.036	0.943 ± 0.077
UniProt P16989 and related entries	0.932 ± 0.037	0.944 ± 0.019	0.908 ± 0.019	0.955 ± 0.054	0.878 ± 0.029	0.854 ± 0.025
RPL35A (UniProt P18077)	1.1 ± 0.11	1.02 ± 0.089	1 ± 0.043	1.01 ± 0.082	0.932 ± 0.094	1.06 ± 0.062
VDAC1 (UniProt P21796)	0.941 ± 0.015	0.942 ± 0.013	0.885 ± 0.016	0.914 ± 0.046	0.89 ± 0.026	0.924 ± 0.023
AKT2 (UniProt P31751)	1.03 ± 0.1	1.04 ± 0.12	1.01 ± 0.11	0.93 ± 0.13	1.03 ± 0.077	1.01 ± 0.097
UniProt P17096 and related entries	0.91 ± 0.21	1.05 ± 0.2	1.03 ± 0.18	1.19 ± 0.45	1.16 ± 0.14	1.43 ± 0.7
ZNF22 (UniProt P17026)	1.04 ± 0.023	1.07 ± 0.086	1.09 ± 0.072	1.13 ± 0.084	1.15 ± 0.059	1.25 ± 0.078
PSMA4 (UniProt P25789)	0.782 ± 0.21	1.05 ± 0.29	0.936 ± 0.21	0.751 ± 0.24	0.95 ± 0.1	0.765 ± 0.23
UniProt P35611 and related entries	0.95 ± 0.019	0.9546 ± 0.0079	0.942 ± 0.015	0.937 ± 0.019	0.9399 ± 0.0069	0.96 ± 0.014
ECHS1 (UniProt P30084)	0.987 ± 0.021	0.984 ± 0.019	0.935 ± 0.032	1.02 ± 0.016	0.94 ± 0.029	0.937 ± 0.027
UniProt P35221 and related entries	0.953 ± 0.046	0.992 ± 0.053	0.983 ± 0.056	0.991 ± 0.05	0.951 ± 0.031	0.935 ± 0.022
RBL1 (UniProt P28749)	1.07 ± 0.2	1.109 ± 0.0067	1.05 ± 0.1	1.05 ± 0.09	1.02 ± 0.061	1.02 ± 0.11
DTYMK (UniProt P23919)	0.942 ± 0.037	0.953 ± 0.05	0.923 ± 0.034	0.933 ± 0.064	0.938 ± 0.058	0.921 ± 0.043
UniProt P17812	1 ± 0.063	0.976 ± 0.064	0.928 ± 0.06	0.917 ± 0.093	0.966 ± 0.064	0.937 ± 0.073
UniProt P17041	0.9629 ± 0.00097	1 ± 0.054	0.968 ± 0.021	0.873 ± 0.049	0.867 ± 0.022	0.903 ± 0.04
MCM7 (UniProt P33993)	0.966 ± 0.038	0.954 ± 0.031	0.928 ± 0.014	0.91 ± 0.025	0.965 ± 0.021	0.951 ± 0.042
CFL1 (UniProt P23528)	0.931 ± 0.21	0.996 ± 0.12	0.903 ± 0.037	0.869 ± 0.14	0.898 ± 0.03	0.83 ± 0.049
GRK5 (UniProt P34947)	1.2281 ± 0.00061	1.275 ± 0.0056	1.2 ± 0.014	1.273 ± 0.0066	1.31 ± 0.023	1.34 ± 0.11

Target	NP40-soluble protein abundance (concentration: 1mM)	NP40-soluble protein abundance (concentration: 2mM)	NP40-soluble protein abundance (concentration: 4mM)	NP40-soluble protein abundance (concentration: 6mM)	NP40-soluble protein abundance (concentration: 8mM)	NP40-soluble protein abundance (concentration: 10mM)
UniProt P19784	1.01 ± 0.081	1.02 ± 0.077	0.997 ± 0.067	0.963 ± 0.12	1.11 ± 0.058	1.07 ± 0.051
AKT1 (UniProt P31749)	0.986 ± 0.08	1.01 ± 0.081	0.991 ± 0.04	0.963 ± 0.1	1.01 ± 0.045	1 ± 0.05
UniProt P30519 and related entries	0.965 ± 0.097	0.93 ± 0.059	0.836 ± 0.18	0.869 ± 0.2	0.918 ± 0.019	0.877 ± 0.028
UniProt P29218 and related entries	0.992 ± 0.02	0.995 ± 0.036	0.962 ± 0.042	0.979 ± 0.041	0.959 ± 0.023	0.947 ± 0.037
ABCC1 (UniProt P33527)	0.992 ± 0.012	0.9963 ± 0.0072	0.9825 ± 0.008	0.981 ± 0.0096	0.968 ± 0.011	0.97 ± 0.033
UniProt P30044 and related entries	0.993 ± 0.073	0.995 ± 0.017	0.979 ± 0.024	1.03 ± 0.014	0.95 ± 0.022	0.935 ± 0.057
TAL1 (UniProt P17542)	0.975 ± 0.17	0.892 ± 0.083	0.901 ± 0.075	0.885 ± 0.12	0.801 ± 0.05	0.799 ± 0.1
UniProt P20701 and related entries	0.9695 ± 0.0081	0.986 ± 0.034	0.946 ± 0.036	0.94 ± 0.012	0.934 ± 0.054	0.945 ± 0.015
CA8 (UniProt P35219)	1.05 ± 0.11	1.06 ± 0.14	1.06 ± 0.091	1.03 ± 0.14	1.07 ± 0.09	1.01 ± 0.1
UniProt P25788 and related entries	0.92 ± 0.044	0.883 ± 0.021	0.833 ± 0.033	0.862 ± 0.056	0.876 ± 0.072	0.856 ± 0.042
UniProt P20810-10|P20810-6	0.958 ± 0.075	0.956 ± 0.029	0.92 ± 0.019	0.986 ± 0.042	0.901 ± 0.032	0.9053 ± 0.0077
UniProt P19174-2|P19174	0.998 ± 0.082	0.967 ± 0.073	0.959 ± 0.072	0.911 ± 0.1	0.994 ± 0.065	0.955 ± 0.056
LMNB1 (UniProt P20700)	0.877 ± 0.097	0.986 ± 0.17	0.866 ± 0.11	1.1 ± 0.16	0.91 ± 0.16	1.1 ± 0.083
ATP6V1B2 (UniProt P21281)	1 ± 0.012	0.983 ± 0.019	0.978 ± 0.027	0.993 ± 0.013	0.993 ± 0.012	0.982 ± 0.03
UniProt P26010 and related entries	0.923 ± 0.12	0.942 ± 0.099	0.959 ± 0.12	0.955 ± 0.08	0.89 ± 0.081	0.94 ± 0.096
STMN1 (UniProt P16949)	0.943 ± 0.1	0.891 ± 0.021	0.882 ± 0.024	0.944 ± 0.04	0.872 ± 0.019	0.852 ± 0.097
UniProt P22001	0.876 ± 0.11	0.955 ± 0.07	0.969 ± 0.12	0.944 ± 0.05	0.848 ± 0.019	0.862 ± 0.11
ZNF24 (UniProt P17028)	1.04 ± 0.027	1.02 ± 0.043	1.04 ± 0.03	1.05 ± 0.02	1.02 ± 0.022	1.03 ± 0.037
UniProt P23497 and related entries	0.981 ± 0.069	0.97 ± 0.054	0.981 ± 0.047	0.971 ± 0.056	0.939 ± 0.043	0.931 ± 0.04
UniProt P21964 and related entries	1 ± 0.017	0.981 ± 0.027	0.938 ± 0.04	0.964 ± 0.062	0.953 ± 0.054	0.937 ± 0.027

From the supplement of paper PMC6411743
